Results published in PubChem BioAssay AID1053174 (Broad Institute, 2014).
In all, about 1,500 compounds went through this assay and about 140 (9.3%) were called active. How the calls were made is not given here. Only a part is listed here, and it is no random draw.

Assay: AlphaScreen signal interference with preloaded methylated product, dose response, artefact control for NSD2 inhibitor project, biochemical, cherry-picked samples (AID 1053174);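 further: 0% = median of neutral control wells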
Details: AlphaScreen artifact counterscreen, preloaded methylated H4 peptide; at 10 µM (top of the series)

Question: For Cc1c(C(=O)O)cccc1-n1c(C)cc(/C=C2\C(=O)NC(=O)N(c3ccc4c(c3)OCO4)C2=O)c1C, which activity change, negative = signal loss is on record?
Answer: Its activity change, negative = signal loss is inactive: -7.69%.

Question: Which activity change, negative = signal loss does the source give for CC(=O)OC1C2(CC3N4C(=O)C5(CO)SSC4(CC31O)C(=O)N5C)OC(C)C(C)(C)C2=O (configuration not stated) here?
Answer: The activity change, negative = signal loss was inactive: -1.42%.
